From paper doi:10.1101/2025.01.05.631413
Results are given in words; binding and its absence hold for the method and conditions named. Binding seen in cells or lysates may run through a third protein. Binding calls can cover weak binding; strength is not graded here. Values belong to the molecule of their own block, whether it stands above or below them.

Protein sequences, listed by entry. Tags and fused reporters are not part of them. Lines headed by an entry give the natural chain unless they say otherwise; changes in a name come on top.
UniProt Q8NBP7: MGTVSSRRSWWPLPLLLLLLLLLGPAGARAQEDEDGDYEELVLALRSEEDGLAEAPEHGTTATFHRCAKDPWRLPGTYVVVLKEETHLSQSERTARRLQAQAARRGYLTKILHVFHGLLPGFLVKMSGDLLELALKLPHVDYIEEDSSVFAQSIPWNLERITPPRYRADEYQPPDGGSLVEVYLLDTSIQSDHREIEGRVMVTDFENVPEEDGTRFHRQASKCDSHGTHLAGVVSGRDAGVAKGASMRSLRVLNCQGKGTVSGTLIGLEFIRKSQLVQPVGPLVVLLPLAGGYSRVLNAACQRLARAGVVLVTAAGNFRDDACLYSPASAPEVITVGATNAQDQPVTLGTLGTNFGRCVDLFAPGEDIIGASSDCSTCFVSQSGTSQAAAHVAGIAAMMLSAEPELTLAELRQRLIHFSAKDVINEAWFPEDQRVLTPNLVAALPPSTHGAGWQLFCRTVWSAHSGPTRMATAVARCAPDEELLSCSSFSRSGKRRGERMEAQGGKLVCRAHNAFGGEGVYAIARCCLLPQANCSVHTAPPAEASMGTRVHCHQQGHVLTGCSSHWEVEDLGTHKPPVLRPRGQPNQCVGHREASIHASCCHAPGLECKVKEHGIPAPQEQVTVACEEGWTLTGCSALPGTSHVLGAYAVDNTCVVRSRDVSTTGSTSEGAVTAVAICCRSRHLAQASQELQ

Tests used:
Assay in all cases: co-IP
[1] = target: T1, Angiopoietin-like protein 3 (ANGPTL3) (human (endogenous in HepG2)) (UniProt Q9Y5C1)
T1 sequence: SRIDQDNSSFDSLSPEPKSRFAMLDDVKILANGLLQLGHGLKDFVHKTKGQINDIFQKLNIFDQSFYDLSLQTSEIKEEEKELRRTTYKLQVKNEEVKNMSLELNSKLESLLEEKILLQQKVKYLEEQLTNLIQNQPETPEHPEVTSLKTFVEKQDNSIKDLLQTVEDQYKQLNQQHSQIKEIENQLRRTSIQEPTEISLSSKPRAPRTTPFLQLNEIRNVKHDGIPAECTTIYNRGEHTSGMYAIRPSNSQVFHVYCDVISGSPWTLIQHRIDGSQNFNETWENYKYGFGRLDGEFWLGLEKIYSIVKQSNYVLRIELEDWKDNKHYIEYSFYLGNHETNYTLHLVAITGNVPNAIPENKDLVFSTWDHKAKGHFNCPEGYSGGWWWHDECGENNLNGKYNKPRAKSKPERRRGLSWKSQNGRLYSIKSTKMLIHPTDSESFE

[2] = target: proprotein convertase subtilisin/kexin-like 9 (PCSK9), intracellular (human (endogenous in HepG2)) (UniProt Q8NBP7)
[3] = target: mature form of proprotein convertase subtilisin/kexin-like 9 (PCSK9), secreted (human (endogenous in HepG2))

binding [1]: binds
Molecule: proprotein convertase subtilisin/kexin-like 9 (PCSK9), intracellular (from UniProt Q8NBP7-1)

binding [2]: binds
binding [3]: binds
B1: Angiopoietin-like protein 3 (ANGPTL3) (protein, UniProt Q9Y5C1 17-460)
chain: T1 sequence
